Results taken from PubChem BioAssay AID540256 (National Center for Advancing Translational Sciences (NCATS), 2011).
About 3,700 (1.2%) of roughly 300,000 compounds were called active. The inconclusive results got no clear call from the source; some entries with a clear call stand among them for comparison. Calls follow the shape of the full dose curve; tested in HEK293 cells. Potencies beside an inconclusive call are fits to weak or partial responses and may not hold up.

Assay: qHTS for Inhibitors of binding or entry into cells for Lassa Virus; also: nearly all actives have a fitted effect of over 50% in size
Conditions: Lassa virus pseudotype entry inhibition, cell reporter; series mostly up to 37.9 µM
Potency is read from the fitted curve at half-maximal effect.

With `Cc1cc(Br)cc(C)c1OCCCCN(C)C` as the molecule, how does the Potency read?
Its Potency is inconclusive: 10.3 µM [inhibitor, single point].

With `COc1ccc(C2c3c(ncn(CCN4CCOCC4)c3=N)Oc3ccc4ccccc4c32)cc1OC` (stereo not given) as the molecule, how does the Potency read?
The Potency was inconclusive: 29.1 µM [inhibitor, single point].

Which Potency does the source give for `COc1ccc(CC(=O)n2nc(-c3ccc(Cl)cc3)nc2NCc2ccco2)cc1` here?
Its Potency is “inactive”.

Which Potency does the source give for `CCCCc1nn2c(=O)cc(COC(=O)c3cccc(NC(=O)CCc4ccccc4)c3)nc2s1` here?
The Potency was inconclusive: 5.62 µM [activator, single point].

Which Potency does the source give for `CCOc1ccc(/C=C2\SC(=S)N(CC(=O)NCCCN3CCOCC3)C2=O)cc1` here?
The Potency was “inactive”.

Which Potency does the source give for `O=C(NCCC1=CCCCC1)c1ccc2c(c1)N(Cc1ccccc1)C(=O)CS2` here?
The Potency was inconclusive: 25.9 µM [inhibitor, single point].

Which Potency does the source give for `O=C(Nc1ccccc1Br)c1ccccc1-c1ccccc1` here?
Its Potency is inconclusive: 6.51 µM [inhibitor, partial curve, poor fit].

Which Potency does the source give for `COc1ccc(CCN(Cc2nc3ccccc3c(=O)[nH]2)C(=O)C2CC2)cc1` here?
Its Potency is inconclusive: 12.6 µM [inhibitor, partial curve, poor fit].

Which Potency does the source give for `CC(=O)NCCC(=O)Nc1nc(-c2ccccc2Cl)cs1` here?
The Potency was “inactive”.

With `CC(=O)Nc1ccc(-c2nc3cc(Cl)ccc3o2)cc1` as the molecule, how does the Potency read?
The Potency was inconclusive: 8.91 µM [inhibitor, partial curve].

Which Potency does the source give for `Nc1nc(Br)c2c(F)cccc2c1-c1ccc(Cl)cc1` here?
The Potency was “inactive”.

Which Potency does the source give for `O=C(CCNS(=O)(=O)c1ccc(Br)s1)NC1CCCC1` here?
The Potency was “inactive”.

For `Cc1csc(NC(=O)c2ccc3ccccc3n2)n1`, which Potency is on record?
The Potency was inconclusive: 1 µM [activator, single point].

With `Cc1cc(C(=O)COC(=O)c2ccccc2Br)c(C)n1CC1CCCO1` (stereo not given) as the molecule, how does the Potency read?
The Potency was inconclusive: 4.47 µM [inhibitor, full curve, poor fit].

With `CCOC(=O)[C@]12C[C@]3(C)CCCN(C(=O)N[C@@H]1c1ccccc1)[C@@H]32` as the molecule, how does the Potency read?
The Potency was inconclusive: 0.0944 µM [inhibitor, full curve, poor fit].

For `CCOc1ccc(C(=O)NCC(=O)OCC(=O)N2CCCCC2)cc1`, which Potency is on record?
Its Potency is “inactive”.

Which Potency does the source give for `COc1ccccc1CNC(=O)CCn1c(=O)c2ccccc2n(CC(=O)Nc2ccc(C)cc2Cl)c1=O` here?
The Potency was “inactive”.

For `CCOC(=O)c1c(S(=O)(=O)NCC(=O)N2CCN(c3ccccc3)CC2)c(C)n(C)c1C`, which Potency is on record?
The Potency was “inactive”.

For `COc1cccc(C(=O)NCC2CCN(c3ccc(S(=O)(=O)N4CCOCC4)cc3)CC2)c1`, which Potency is on record?
Its Potency is inconclusive: 0.126 µM [inhibitor, full curve, poor fit].

For `CS(=O)(=O)c1ccc2nc(NC(=O)c3ccccc3)sc2c1`, which Potency is on record?
Its Potency is inconclusive: 12.6 µM [inhibitor, partial curve, poor fit].

With `CCOc1ccc(NCc2nc3ccccc3n2CCOc2ccccc2)cc1` as the molecule, how does the Potency read?
The Potency was inconclusive: 29.1 µM [inhibitor, single point].

With `N#Cc1cc2c(nc1SCC(=O)Nc1sc3c(c1C#N)CCC3)CCC2` as the molecule, how does the Potency read?
The Potency was inconclusive: 3.55 µM [activator, partial curve, poor fit].

Which Potency does the source give for `c1cc2c(cc1C1CCCCC1)c1c3n2CCCNC3CCC1` (stereo not given) here?
Its Potency is inconclusive: 35.5 µM [inhibitor, single point].

For `COc1cccc(-c2ccc3c(N)c(C(=O)NC4CC4)sc3n2)c1`, which Potency is on record?
The Potency was inconclusive: 11.2 µM [inhibitor, single point].

Which Potency does the source give for `COc1cc(CC(=O)OCC(=O)Nc2ccc(N3CCOCC3)cc2)cc(OC)c1OC` here?
Its Potency is inconclusive: 1.26 µM [activator, full curve].

Which Potency does the source give for `Fc1ccc(NC(=S)N2CCN(c3cccc(C(F)(F)F)c3)CC2)cc1` here?
Its Potency is inconclusive: 15.8 µM [inhibitor, partial curve, poor fit].

For `Cc1ccnc(NC(=O)CCCc2ccccc2)c1`, which Potency is on record?
Its Potency is “inactive”.

For `CCOc1ccc(Cl)cc1S(=O)(=O)N1CCN(c2ccc(F)cc2)CC1`, which Potency is on record?
The Potency was inconclusive: 16.4 µM [inhibitor, single point].

For `COC(=O)CSc1nnc2cc(C)c3ccccc3n12`, which Potency is on record?
Its Potency is “inactive”.

For `O=C(Nc1ccc(F)cc1)c1ccccc1Oc1ccc(C(F)(F)F)cc1[N+](=O)[O-]`, which Potency is on record?
The Potency was inconclusive: 22.4 µM [inhibitor, single point].

Which Potency does the source give for `O=C1OCC2=C1C(c1ccc(Cl)cc1)c1cc3c(cc1O2)OCO3` (stereo not given) here?
The Potency was inconclusive: 11.2 µM [inhibitor, single point].

Which Potency does the source give for `Cc1ccc(OCc2cc(C(=O)NCC3COCCO3)no2)cc1C` (stereo not given) here?
The Potency was inconclusive: 14.1 µM [inhibitor, single point].

For `Cc1ccc(S(=O)(=O)Nc2ccc(NC(=O)c3cccnc3)cc2)cc1`, which Potency is on record?
Its Potency is inconclusive: 0.355 µM [activator, full curve, poor fit].

Which Potency does the source give for `C#CC(=O)N(c1cccc(OC)c1)C(C(=O)NC1CCCC1)c1cccs1` (stereo not given) here?
Its Potency is inconclusive: 1.64 µM [inhibitor, full curve, poor fit].

For `Cc1nn(CC(=O)Nc2ccccc2C(F)(F)F)c(=O)c2cccn12`, which Potency is on record?
The Potency was inconclusive: 7.08 µM [activator, partial curve, poor fit].

With `O=C(CN1CCOCC1)Nc1cccc(S(=O)(=O)N2CCCCCC2)c1` as the molecule, how does the Potency read?
Its Potency is inconclusive: 35.5 µM [inhibitor, single point].

Which Potency does the source give for `CCOC(=O)C1=C(C)NC(=O)CC1c1ccccc1` (stereo not given) here?
Its Potency is inconclusive: 10 µM [inhibitor, partial curve, poor fit].

For `CCOC(=O)c1cnc2c(-c3ccc(F)cc3)cnn2c1C(F)(F)F`, which Potency is on record?
The Potency was inconclusive: 0.224 µM [inhibitor, full curve, poor fit].

For `CCOc1ccc(N(CC(=O)NCCSCc2ccco2)S(=O)(=O)c2ccc(F)cc2)cc1`, which Potency is on record?
Its Potency is inconclusive: 35.5 µM [inhibitor, single point].

With `O=C(CN(c1cc(Cl)ccc1Cl)S(=O)(=O)c1ccccc1)N1CCOCC1` as the molecule, how does the Potency read?
Its Potency is “inactive”.

Which Potency does the source give for `COc1ccc(N(CC(=O)NCc2ccccc2Cl)S(=O)(=O)c2c(C)nn(C)c2C)cc1` here?
The Potency was “inactive”.

With `CCOC(=O)c1c(C)[nH]c(C(=O)COC(=O)COc2ccccc2C=O)c1C` as the molecule, how does the Potency read?
The Potency was “inactive”.

For `Cn1c(=O)c(=O)n(C)c2cc(NC(=O)c3cccc(F)c3)c(Cl)cc21`, which Potency is on record?
The Potency was “inactive”.

For `CCOP(=O)(OCC)c1cccc(OP(=O)(c2cccc([N+](=O)[O-])c2)c2cccc([N+](=O)[O-])c2)c1`, which Potency is on record?
Its Potency is “inactive”.

For `Cc1c(Cl)cccc1NC(CC(=O)c1ccccc1)C(=O)OCC(=O)c1cccs1` (stereo not given), which Potency is on record?
The Potency was “inactive”.

With `CC(=O)c1cccc(Nc2nc(-c3sc(C)nc3C)cs2)c1` as the molecule, how does the Potency read?
Its Potency is inconclusive: 35.5 µM [inhibitor, single point].

For `Cc1c(Cc2ccccc2)sc(NC(=O)/C=C/c2cccc3ccccc23)c1C(N)=O`, which Potency is on record?
Its Potency is inconclusive: 1.41 µM [inhibitor, full curve, poor fit].

Which Potency does the source give for `Cc1[nH]c2ccc(F)cc2c1CCN(Cc1cccnc1)C(=S)Nc1cccc(F)c1` here?
Its Potency is inconclusive: 10 µM [inhibitor, partial curve, poor fit].

Which Potency does the source give for `COC(=O)c1ccc(CNC(=O)C2CCC(=O)N(CCc3ccccc3)C2)cc1` (stereo not given) here?
The Potency was inconclusive: 31.6 µM [activator, partial curve, poor fit].

With `Cc1ccc(NC2(C#N)C(=O)Nc3ccccc32)cc1` (stereo not given) as the molecule, how does the Potency read?
The Potency was inconclusive: 22.4 µM [activator, single point].

Which Potency does the source give for `CCCN1CCN(c2ncnc3c2nnn3Cc2ccccc2)CC1` here?
The Potency was inconclusive: 11.2 µM [inhibitor, partial curve, poor fit].

Which Potency does the source give for `CC(C)C(c1nnnn1Cc1ccco1)N1CCN(c2nc3ccccc3s2)CC1` (stereo not given) here?
The Potency was inconclusive: 16.4 µM [inhibitor, single point].

Which Potency does the source give for `COc1ccc(CCNC(=O)CCCCn2c(=O)c3ccccc3n(Cc3ccccc3C)c2=O)cc1OC` here?
Its Potency is inconclusive: 20 µM [inhibitor, single point].

Which Potency does the source give for `CCS(=O)(=O)c1ncc(N(Cc2ccccc2)Cc2ccco2)c(C(=O)Nc2ccc(C)c(C)c2)n1` here?
Its Potency is inconclusive: 7.08 µM [inhibitor, partial curve, poor fit].

Which Potency does the source give for `CCn1c(NCc2ccc(OC)cc2)nc2ccccc21` here?
The Potency was “inactive”.

Which Potency does the source give for `COc1ccccc1C1c2[nH]c3ccccc3c2CCN1Cc1cnc(C)s1` (stereo not given) here?
Its Potency is inconclusive: 25.1 µM [inhibitor, single point].

For `Cc1cccc(Oc2c(C=O)c3ccccc3n2C)c1`, which Potency is on record?
The Potency was “inactive”.

For `O=C(NCCc1ccccc1)c1ccc(Cn2c(SCc3cccc(F)c3)nc3cccnc32)cc1`, which Potency is on record?
Its Potency is inconclusive: 35.5 µM [inhibitor, single point].

Which Potency does the source give for `CCCN(Cc1ccccc1)C(=S)Nc1ccc(C(C)=O)cc1` here?
The Potency was inconclusive: 35.5 µM [inhibitor, single point].

Which Potency does the source give for `COc1ccc(/C=C/C(=O)c2c(O)n(CCC3=CCCCC3)c(=O)[nH]c2=O)cc1` here?
Its Potency is inconclusive: 0.562 µM [inhibitor, full curve, poor fit].

With `Cc1ccccc1NC(=O)N1CCc2c(sc3c2CCCC3)C1c1ccccc1` (stereo not given) as the molecule, how does the Potency read?
The Potency was inconclusive: 14.1 µM [inhibitor, single point].

Which Potency does the source give for `O=C(CCn1c(=O)c2ccccc2n(CC(=O)NC2CCCC2)c1=O)NCCc1ccc(Cl)cc1` here?
The Potency was inconclusive: 0.58 µM [inhibitor, single point].

Which Potency does the source give for `COc1cccc(NC(C)C(=O)Nc2cc([N+](=O)[O-])ccc2Cl)c1` (stereo not given) here?
The Potency was inconclusive: 0.501 µM [inhibitor, full curve, poor fit].

For `O=[N+]([O-])c1ccc(NN=Cc2cc(Br)ccc2O)nc1`, which Potency is on record?
Its Potency is inconclusive: 35.5 µM [inhibitor, single point].

Which Potency does the source give for `COc1cc(NC(=O)c2cc3nc(C)cc(C)n3n2)c(OC)cc1Cl` here?
The Potency was inconclusive: 1.26 µM [activator, single point].
